Assay results from patent publication US6302119A, “Low odor permanent waving compositions containing a disulfide” (priority 1999, dated 2001).

Assay: Processing and post-perm odor with water-soluble disulfides

CC(C)(CO)[C@@H](O)C(=O)NCCC(=O)NCCSSCCNC(=O)CCNC(=O)[C@H](O)C(C)(C)CO [pantethine]
odor reduction results: acceptable results have been obtained
